According to PMC10323252:
Where two headings read alike, the source gives them in different places. No constants are given. Whether binding was seen depends on the method and setting. Binding seen in cells or lysates may run through a third protein. A yes stands for co-enrichment or nearness to the bait. Other partners may have been found. For some of these results: A no says only that the protein was not detected with the bait. For some of these results: Where a sequence is shown, tags or fusion partners need not be part of it.

The chains behind the UniProt entries cited, without tags or fusion partners. Where a name states a change or a piece, a line headed by the entry shows the natural chain unless it says otherwise.
UniProt P20338: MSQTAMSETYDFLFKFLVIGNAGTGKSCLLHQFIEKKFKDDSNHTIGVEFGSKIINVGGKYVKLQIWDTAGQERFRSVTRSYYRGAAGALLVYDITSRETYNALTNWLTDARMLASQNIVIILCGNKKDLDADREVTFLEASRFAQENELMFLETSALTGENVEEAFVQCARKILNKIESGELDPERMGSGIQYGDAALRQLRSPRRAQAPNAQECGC
UniProt P62491: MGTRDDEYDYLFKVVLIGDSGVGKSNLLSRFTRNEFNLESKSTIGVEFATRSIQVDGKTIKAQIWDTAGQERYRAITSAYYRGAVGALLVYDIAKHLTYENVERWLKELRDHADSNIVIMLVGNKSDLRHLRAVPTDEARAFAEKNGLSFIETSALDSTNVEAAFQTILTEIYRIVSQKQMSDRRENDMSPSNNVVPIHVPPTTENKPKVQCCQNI
UniProt Q96T51: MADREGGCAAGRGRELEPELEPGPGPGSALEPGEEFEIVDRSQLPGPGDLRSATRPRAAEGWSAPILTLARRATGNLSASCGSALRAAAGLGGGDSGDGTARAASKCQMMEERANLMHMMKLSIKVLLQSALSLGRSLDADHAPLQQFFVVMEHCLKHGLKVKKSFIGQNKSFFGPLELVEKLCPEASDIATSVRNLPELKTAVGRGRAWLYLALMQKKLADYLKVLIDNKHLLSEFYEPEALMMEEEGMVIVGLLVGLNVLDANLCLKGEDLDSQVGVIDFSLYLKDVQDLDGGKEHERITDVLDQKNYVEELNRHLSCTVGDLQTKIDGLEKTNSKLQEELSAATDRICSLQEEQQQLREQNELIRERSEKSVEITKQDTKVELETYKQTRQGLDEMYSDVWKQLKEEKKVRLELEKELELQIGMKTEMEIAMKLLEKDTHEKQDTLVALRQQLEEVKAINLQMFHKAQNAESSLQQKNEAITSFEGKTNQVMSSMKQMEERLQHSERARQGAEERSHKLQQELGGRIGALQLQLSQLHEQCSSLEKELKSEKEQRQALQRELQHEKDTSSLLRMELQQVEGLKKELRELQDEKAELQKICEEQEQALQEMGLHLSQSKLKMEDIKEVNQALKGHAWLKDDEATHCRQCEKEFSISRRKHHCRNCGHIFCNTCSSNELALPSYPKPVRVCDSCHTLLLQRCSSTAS
UniProt Q658Y4: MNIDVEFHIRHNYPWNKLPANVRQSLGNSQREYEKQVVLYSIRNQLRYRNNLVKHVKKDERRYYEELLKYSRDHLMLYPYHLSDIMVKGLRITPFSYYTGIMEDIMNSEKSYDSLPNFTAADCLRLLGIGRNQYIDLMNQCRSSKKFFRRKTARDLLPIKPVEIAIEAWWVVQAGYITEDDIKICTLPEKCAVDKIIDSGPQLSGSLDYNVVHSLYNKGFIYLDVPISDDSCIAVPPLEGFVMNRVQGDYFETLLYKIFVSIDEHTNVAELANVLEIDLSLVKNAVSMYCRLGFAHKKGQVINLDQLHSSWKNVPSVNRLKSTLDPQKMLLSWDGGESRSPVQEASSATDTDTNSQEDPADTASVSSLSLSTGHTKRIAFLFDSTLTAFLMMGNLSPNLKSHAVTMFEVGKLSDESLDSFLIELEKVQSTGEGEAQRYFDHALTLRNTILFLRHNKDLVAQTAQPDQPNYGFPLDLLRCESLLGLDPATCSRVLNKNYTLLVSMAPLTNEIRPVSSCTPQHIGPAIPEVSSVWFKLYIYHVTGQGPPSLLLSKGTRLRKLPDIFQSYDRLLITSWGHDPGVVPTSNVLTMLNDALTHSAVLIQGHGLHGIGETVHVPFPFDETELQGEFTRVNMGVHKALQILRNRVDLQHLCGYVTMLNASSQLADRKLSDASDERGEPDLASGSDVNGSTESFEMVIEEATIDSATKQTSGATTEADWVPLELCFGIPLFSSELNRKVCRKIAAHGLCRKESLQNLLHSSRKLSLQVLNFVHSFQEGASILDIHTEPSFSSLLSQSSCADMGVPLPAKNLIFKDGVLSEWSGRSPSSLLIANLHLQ
UniProt Q92609: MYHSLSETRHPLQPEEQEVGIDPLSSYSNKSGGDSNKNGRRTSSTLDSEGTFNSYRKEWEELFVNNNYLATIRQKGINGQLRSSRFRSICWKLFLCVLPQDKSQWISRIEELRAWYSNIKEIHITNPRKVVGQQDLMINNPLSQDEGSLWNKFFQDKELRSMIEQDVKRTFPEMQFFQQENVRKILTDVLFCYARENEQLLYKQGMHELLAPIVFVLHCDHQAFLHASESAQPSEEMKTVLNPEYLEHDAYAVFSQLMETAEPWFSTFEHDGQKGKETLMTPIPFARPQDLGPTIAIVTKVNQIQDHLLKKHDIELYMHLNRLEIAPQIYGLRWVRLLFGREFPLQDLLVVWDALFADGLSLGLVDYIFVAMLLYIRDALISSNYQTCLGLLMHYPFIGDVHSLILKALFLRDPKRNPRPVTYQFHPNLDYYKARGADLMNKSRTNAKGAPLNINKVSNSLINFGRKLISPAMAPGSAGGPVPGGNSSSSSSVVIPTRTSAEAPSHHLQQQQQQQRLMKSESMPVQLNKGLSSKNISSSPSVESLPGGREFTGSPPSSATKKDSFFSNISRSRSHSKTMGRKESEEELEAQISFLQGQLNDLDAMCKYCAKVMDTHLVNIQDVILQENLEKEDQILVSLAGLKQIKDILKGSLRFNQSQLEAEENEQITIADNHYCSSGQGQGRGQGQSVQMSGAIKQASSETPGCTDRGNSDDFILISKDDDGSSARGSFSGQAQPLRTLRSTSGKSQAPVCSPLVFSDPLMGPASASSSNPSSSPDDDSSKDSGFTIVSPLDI
UniProt Q9Y3P9: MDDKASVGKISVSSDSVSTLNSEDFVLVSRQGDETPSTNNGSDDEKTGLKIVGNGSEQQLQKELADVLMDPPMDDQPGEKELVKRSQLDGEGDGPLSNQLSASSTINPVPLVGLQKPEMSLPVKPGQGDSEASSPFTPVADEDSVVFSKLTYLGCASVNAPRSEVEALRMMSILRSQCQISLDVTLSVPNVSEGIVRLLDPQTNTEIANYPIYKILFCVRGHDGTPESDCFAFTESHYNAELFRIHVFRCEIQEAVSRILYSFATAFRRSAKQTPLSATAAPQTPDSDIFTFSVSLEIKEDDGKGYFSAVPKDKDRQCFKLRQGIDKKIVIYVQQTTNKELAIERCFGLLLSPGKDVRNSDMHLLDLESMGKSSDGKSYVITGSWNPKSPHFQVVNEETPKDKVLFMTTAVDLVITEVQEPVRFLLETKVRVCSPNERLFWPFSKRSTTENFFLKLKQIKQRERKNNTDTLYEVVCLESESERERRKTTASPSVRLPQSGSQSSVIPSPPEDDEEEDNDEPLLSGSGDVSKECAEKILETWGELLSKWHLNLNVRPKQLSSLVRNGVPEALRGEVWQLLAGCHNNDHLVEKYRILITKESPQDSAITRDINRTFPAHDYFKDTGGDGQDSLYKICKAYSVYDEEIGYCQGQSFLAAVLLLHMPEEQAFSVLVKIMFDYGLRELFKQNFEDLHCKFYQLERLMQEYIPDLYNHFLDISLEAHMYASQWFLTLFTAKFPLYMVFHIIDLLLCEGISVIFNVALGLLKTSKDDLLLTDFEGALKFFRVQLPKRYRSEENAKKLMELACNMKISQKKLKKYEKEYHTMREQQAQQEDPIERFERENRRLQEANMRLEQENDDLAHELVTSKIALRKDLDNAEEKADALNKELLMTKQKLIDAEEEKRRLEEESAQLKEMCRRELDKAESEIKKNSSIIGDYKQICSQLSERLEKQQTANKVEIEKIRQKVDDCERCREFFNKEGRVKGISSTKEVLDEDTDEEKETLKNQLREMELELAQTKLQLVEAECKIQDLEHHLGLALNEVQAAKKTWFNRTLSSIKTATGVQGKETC
UniProt Q15836: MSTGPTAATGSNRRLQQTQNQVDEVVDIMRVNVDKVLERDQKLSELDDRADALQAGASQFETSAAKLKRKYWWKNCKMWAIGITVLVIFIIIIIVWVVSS
UniProt P05556: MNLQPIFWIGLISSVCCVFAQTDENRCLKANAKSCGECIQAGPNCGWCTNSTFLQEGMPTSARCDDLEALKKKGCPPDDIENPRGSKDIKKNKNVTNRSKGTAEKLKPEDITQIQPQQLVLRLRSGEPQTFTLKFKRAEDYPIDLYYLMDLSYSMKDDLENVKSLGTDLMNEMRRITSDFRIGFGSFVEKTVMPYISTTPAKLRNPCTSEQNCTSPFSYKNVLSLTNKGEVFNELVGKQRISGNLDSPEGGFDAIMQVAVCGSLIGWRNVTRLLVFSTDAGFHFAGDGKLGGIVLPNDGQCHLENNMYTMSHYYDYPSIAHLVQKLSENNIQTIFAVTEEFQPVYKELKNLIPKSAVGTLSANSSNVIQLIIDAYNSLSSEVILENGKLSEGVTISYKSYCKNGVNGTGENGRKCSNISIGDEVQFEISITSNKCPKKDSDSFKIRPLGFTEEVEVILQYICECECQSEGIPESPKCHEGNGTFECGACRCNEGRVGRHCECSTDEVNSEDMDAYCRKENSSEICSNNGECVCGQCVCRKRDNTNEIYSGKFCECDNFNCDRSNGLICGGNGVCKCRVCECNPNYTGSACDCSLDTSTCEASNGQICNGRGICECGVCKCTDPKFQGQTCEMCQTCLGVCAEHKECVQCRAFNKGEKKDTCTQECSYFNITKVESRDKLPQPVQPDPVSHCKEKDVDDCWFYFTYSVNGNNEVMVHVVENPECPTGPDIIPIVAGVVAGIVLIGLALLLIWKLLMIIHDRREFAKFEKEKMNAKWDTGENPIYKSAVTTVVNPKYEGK
UniProt P51149: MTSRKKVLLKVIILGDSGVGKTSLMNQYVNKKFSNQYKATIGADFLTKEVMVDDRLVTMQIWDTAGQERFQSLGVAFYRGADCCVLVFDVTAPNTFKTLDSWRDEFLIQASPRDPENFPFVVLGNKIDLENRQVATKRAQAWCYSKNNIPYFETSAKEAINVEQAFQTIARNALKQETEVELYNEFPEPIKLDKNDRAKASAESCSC
UniProt Q9NP61: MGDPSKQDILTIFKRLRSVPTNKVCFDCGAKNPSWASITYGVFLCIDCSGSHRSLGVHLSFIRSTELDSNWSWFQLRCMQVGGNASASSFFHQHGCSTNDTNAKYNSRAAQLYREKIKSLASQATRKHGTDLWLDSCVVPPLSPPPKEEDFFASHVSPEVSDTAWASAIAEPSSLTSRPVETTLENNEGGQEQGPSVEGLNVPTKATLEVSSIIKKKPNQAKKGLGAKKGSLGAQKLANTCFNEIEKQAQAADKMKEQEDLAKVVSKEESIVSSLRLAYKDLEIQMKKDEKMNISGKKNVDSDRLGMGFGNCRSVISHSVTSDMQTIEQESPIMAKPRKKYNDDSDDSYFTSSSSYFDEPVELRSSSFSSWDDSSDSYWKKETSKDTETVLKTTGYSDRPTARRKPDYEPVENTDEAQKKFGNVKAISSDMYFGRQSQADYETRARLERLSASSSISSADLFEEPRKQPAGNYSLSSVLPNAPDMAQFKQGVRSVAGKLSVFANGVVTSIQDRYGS
UniProt O43399: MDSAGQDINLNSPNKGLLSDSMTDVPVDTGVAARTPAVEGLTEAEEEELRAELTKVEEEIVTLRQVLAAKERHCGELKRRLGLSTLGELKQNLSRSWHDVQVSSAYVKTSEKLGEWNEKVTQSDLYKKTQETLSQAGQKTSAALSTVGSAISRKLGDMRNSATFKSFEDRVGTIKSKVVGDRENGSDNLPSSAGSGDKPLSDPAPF
UniProt P61026: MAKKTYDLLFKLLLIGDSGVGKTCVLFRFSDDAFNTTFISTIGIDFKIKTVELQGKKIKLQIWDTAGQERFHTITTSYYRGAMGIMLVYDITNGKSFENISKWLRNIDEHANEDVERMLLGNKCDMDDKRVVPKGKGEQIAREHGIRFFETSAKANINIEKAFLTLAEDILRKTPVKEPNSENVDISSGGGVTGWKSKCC

Assays:
Experiment in all cases: proximity labelling; BioID: A2780 cells stably expressing mycBirA*-Rab baits (mycBirA* alone as control), 1 uM biotin for 16 h; lysis in 0.4% SDS, 500 mM NaCl buffer; streptavidin microspheres; LC-MS/MS with label-free quantification, four replicates; high-confidence list by SAINTexpress (BFDR<=0.05), longlist by >2-fold enrichment; biotin-modified peptides also scored
mycBirA*–Rab4a [1] = target: mycBirA*–Rab4a (UniProt P20338)
mycBirA*–Rab25 [2] = target: T1, mycBirA*–Rab25 (UniProt P57735)
T1 sequence: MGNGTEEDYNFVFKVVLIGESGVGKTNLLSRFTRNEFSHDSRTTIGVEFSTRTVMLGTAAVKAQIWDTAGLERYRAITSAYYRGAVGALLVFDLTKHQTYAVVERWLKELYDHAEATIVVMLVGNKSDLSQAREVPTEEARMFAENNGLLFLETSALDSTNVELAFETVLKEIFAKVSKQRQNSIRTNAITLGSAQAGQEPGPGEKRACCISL

mycBirA*–Rab11a [3] = target: mycBirA*–Rab11a (UniProt P62491)
mycBirA*–Rab4a [4] = target: mycBirA*–Rab4a (UniProt P20338); remark: listed apart in the source
mycBirA*–Rab25 [5] = target: T1, mycBirA*–Rab25; remark: listed apart in the source
mycBirA*–Rab11a [6] = target: mycBirA*–Rab11a (UniProt P62491); remark: listed apart in the source

| Molecule | binding (mycBirA*–Rab4a [1]) | binding (mycBirA*–Rab25 [2]) | binding (mycBirA*–Rab11a [3]) | binding (mycBirA*–Rab4a [4]) | binding (mycBirA*–Rab25 [5]) | binding (mycBirA*–Rab11a [6]) |
| --- | --- | --- | --- | --- | --- | --- |
| RUFY1 (from UniProt Q96T51 1-708) | binds | – | – | – | – | – |
| FAM91A1 (from UniProt Q658Y4 1-838) | binds | – | – | – | – | – |
| TBC1D5 (from UniProt Q92609 1-795) | binds | binds | binds | – | – | – |
| RabGAP1 (from UniProt Q9Y3P9 1-1069) | binds | binds | binds | – | – | – |
| VAMP3 (from UniProt Q15836 1-100) | binds | binds | binds | – | – | – |
| ARFGEF2 (from UniProt Q9Y6D5 1-1785) | binds | – | – | – | – | – |
| ITGB1 (from UniProt P05556 21-798) | binds | binds | binds | – | – | – |
| Rab7a (from UniProt P51149 1-207) | binds | – | – | – | – | – |
| ARFGAP3 (from UniProt Q9NP61 1-516) | binds | binds | binds | – | – | – |
| TPD52L2 (from UniProt O43399 1-206) | binds | binds | binds | – | – | – |
| Rab10 (from UniProt P61026 1-200) | no binding | no binding | no binding | – | – | – |
| AKAP10 (protein, UniProt O43572 29-662) KVKGKEQEKTSDVKSIKASISVHSPQKSTKNHALLEAAGPSHVAINAISANMDSFSSSRTATLKKQPSHMEAAHFGDLGRSCLDYQTQETKSSLSKTLEQVLHDTIVLPYFIQFMELRRMEHLVKFWLEAESFHSTTWSRIRAHSLNTVKQSSLAEPVSPSKKHETTASFLTDSLDKRLEDSGSAQLFMTHSEGIDLNNRTNSTQNHLLLSQECDSAHSLRLEMARAGTHQVSMETQESSSTLTVASRNSPASPLKELSGKLMKSIEQDAVNTFTKYISPDAAKPIPITEAMRNDIIARICGEDGQVDPNCFVLAQSIVFSAMEQEHFSEFLRSHHFCKYQIEVLTSGTVYLADILFCESALFYFSEYMEKEDAVNILQFWLAADNFQSQLAAKKGQYDGQEAQNDAMILYDKYFSLQATHPLGFDDVVRLEIESNICREGGPLPNCFTTPLRQAWTTMEKVFLPGFLSSNLYYKYLNDLIHSVRGDEFLGGNVSLTAPGSVGPPDESHPGSSDSSASQSSVKKASIKILKNFDEAIIVDAASLDPESLYQRTYAGKMTFGRVSDLGQFIRESEPEPDVRKSKGSMFSQAMKKWVQGNTDEAQEELAWKIAKMIVSDIMQQAQYDQPLEKSTKL | – | – | – | binds | binds | binds |
| ARHGAP1 (protein, UniProt Q07960 1-439) MDPLSELQDDLTLDDTSEALNQLKLASIDEKNWPSDEMPDFPKSDDSKSSSPELVTHLKWDDPYYDIARHQIVEVAGDDKYGRKIIVFSACRMPPSHQLDHSKLLGYLKHTLDQYVESDYTLLYLHHGLTSDNKPSLSWLRDAYREFDRKYKKNIKALYIVHPTMFIKTLLILFKPLISFKFGQKIFYVNYLSELSEHVKLEQLGIPRQVLKYDDFLKSTQKSPATAPKPMPPRPPLPNQQFGVSLQHLQEKNPEQEPIPIVLRETVAYLQAHALTTEGIFRRSANTQVVREVQQKYNMGLPVDFDQYNELHLPAVILKTFLRELPEPLLTFDLYPHVVGFLNIDESQRVPATLQVLQTLPEENYQVLRFLTAFLVQISAHSDQNKMTNTNLAVVFGPNLLWAKDAAITLKAINPINTFTKFLLDHQGELFPSPDPSGL | – | – | – | binds | binds | binds |
| VPS8 (protein, UniProt Q8N3P4 1-1428) MENEPDHENVEQSLCAKTSEEELNKSFNLEASLSKFSYIDMDKELEFKNDLIDDKEFDIPQVDTPPTLESILNETDDEDESFILEDPTLLNIDTIDSHSYDTSSVASSDSGDRTNLKRKKKLPDSFSLHGSVMRHSLLKGISAQIVSAADKVDAGLPTAIAVSSLIAVGTSHGLALIFGKDQNQALRLCLGSTSVGGQYGAISALSINNDCSRLLCGFAKGQITMWDLASGKLLRSITDAHPPGTAILHIKFTDDPTLAICNDSGGSVFELTFKRVMGVRTCESRCLFSGSKGEVCCIEPLHSKPELKDHPITQFSLLAMASLTKILVIGLKPSLKVWMTFPYGRMDPSSVPLLAWHFVAVQNYVNPMLAFCRGDVVHFLLVKRDESGAIHVTKQKHLHLYYDLINFTWINSRTVVLLDSVEKLHVIDRQTQEELETVEISEVQLVYNSSHFKSLATGGNVSQALALVGEKACYQSISSYGGQIFYLGTKSVYVMMLRSWRERVDHLLKQDCLTEALALAWSFHEGKAKAVVGLSGDASKRKAIVADRMVEILFHYADRALKKCPDQGKIQVMEQHFQDMVPVIVDYCLLLQRKDLLFSQMYDKLSENSVAKGVFLECLEPYILSDKLVGITPQVMKDLIVHFQDKKLMENVEALIVHMDITSLDIQQVVLMCWENRLYDAMIYVYNRGMNEFISPMEKLFRVIAPPLNAGKTLTDEQVVMGNKLLVYISCCLAGRAYPLGDIPEDLVPLVKNQVFEFLIRLHSAEASPEEEIYPYIRTLLHFDTREFLNVLALTFEDFKNDKQAVEYQQRIVDILLKVMVENSDFTPSQVGCLFTFLARQLAKPDNTLFVNRTLFDQVLEFLCSPDDDSRHSERQQVLLELLQAGGIVQFEESRLIRMAEKAEFYQICEFMYEREHQYDKIIDCYLRDPLREEEVFNYIHNILSIPGHSAEEKQSVWQKAMDHIEELVSLKPCKAAELVATHFSGHIETVIKKLQNQVLLFKFLRSLLDPREGIHVNQELLQISPCITEQFIELLCQFNPTQVIETLQVLECYRLEETIQITQKYQLHEVTAYLLEKKGDIHGAFLIMLERLQSKLQEVTHQGENTKEDPSLKDVEDTMVETIALCQRNSHNLNQQQREALWFPLLEAMMAPQKLSSSAIPHLHSEALKSLTMQVLNSMAAFIALPSILQRILQDPVYGKGKLGEIQGLILGMLDTFNYEQTLLETTTSLLNQDLHWSLCNLRASVTRGLNPKQDYCSICLQQYKRRQEMADEIIVFSCGHLYHSFCLQNKECTVEFEGQTRWTCYKCSSSNKVGKLSENSSEIKKGRITPSQVKMSPSYHQSKGDPTAKKGTSEPVLDPQQIQAFDQLCRLYRGSSRLALLTELSQNRSSESYRPFSGSQSAPAFNSIFQNENFQLQLIPPPVTED | – | – | – | binds | binds | binds |
| VPS51 (protein, UniProt Q9UID3 1-782) MAAAAAAGPSPGSGPGDSPEGPEGEAPERRRKAHGMLKLYYGLSEGEAAGRPAGPDPLDPTDLNGAHFDPEVYLDKLRRECPLAQLMDSETDMVRQIRALDSDMQTLVYENYNKFISATDTIRKMKNDFRKMEDEMDRLATNMAVITDFSARISATLQDRHERITKLAGVHALLRKLQFLFELPSRLTKCVELGAYGQAVRYQGRAQAVLQQYQHLPSFRAIQDDCQVITARLAQQLRQRFREGGSGAPEQAECVELLLALGEPAEELCEEFLAHARGRLEKELRNLEAELGPSPPAPDVLEFTDHGGSGFVGGLCQVAAAYQELFAAQGPAGAEKLAAFARQLGSRYFALVERRLAQEQGGGDNSLLVRALDRFHRRLRAPGALLAAAGLADAATEIVERVARERLGHHLQGLRAAFLGCLTDVRQALAAPRVAGKEGPGLAELLANVASSILSHIKASLAAVHLFTAKEVSFSNKPYFRGEFCSQGVREGLIVGFVHSMCQTAQSFCDSPGEKGGATPPALLLLLSRLCLDYETATISYILTLTDEQFLVQDQFPVTPVSTLCAEARETARRLLTHYVKVQGLVISQMLRKSVETRDWLSTLEPRNVRAVMKRVVEDTTAIDVQVGLLYEEGVRKAQSSDSSKRTFSVYSSSRQQGRYAPSYTPSAPMDTNLLSNIQKLFSERIDVFSPVEFNKVSVLTGIIKISLKTLLECVRLRTFGRFGLQQVQVDCHFLQLYLWRFVADEELVHLLLDEVVASAALRCPDPVPMEPSVVEVICERG | – | – | – | binds | binds | binds |
| syntaxin 6 (protein, UniProt O43752 1-255) MSMEDPFFVVKGEVQKAVNTAQGLFQRWTELLQDPSTATREEIDWTTNELRNNLRSIEWDLEDLDETISIVEANPRKFNLDATELSIRKAFITSTRQVVRDMKDQMSTSSVQALAERKNRQALLGDSGSQNWSTGTTDKYGRLDRELQRANSHFIEEQQAQQQLIVEQQDEQLELVSGSIGVLKNMSQRIGGELEEQAVMLEDFSHELESTQSRLDNVMKKLAKVSHMTSDRRQWCAIAILFAVLLVVLILFLVL | – | – | – | binds | binds | binds |
